Laboratory results published in paper PMC10163288.
This is one part of the list.

B1: il2ra_site2_3nfp_normal_mot_HHH_b1_01086_af2_000000264_0001_39_53_H_._HHH_b1_01143_0001_0001200099_0000001_0_af2pred_0001_af2pred (protein)
chain: SSSSDEEEQRVEELLKRIEELKKEGDEEEVRRLLEEILRIARESNNPHLLWILLELRERLESSSS
B2: il2ra_site1_3nfp_sap_16_mot_HHH_b2_02744_000000262_0001_1_20_H_._HHH_b2_06351_0001_0000200035_0000001_0_0001 (protein)
chain: SSSSSAEEAFKLSREIMKLLKEGNEEEAKKLIEELKEWAEEANDPIAERLARQLEEALRRSSSSS
B3: il2ra_site1_2b5i_sap_17_mot_HHH_b1_05608_000000027_0001_1_14_H_._HHH_b1_05678_af2_0001_0000300018_0000001_1_0001 (protein)
chain: SSSSSELAQRARELLHEAQELMKQGNEEEARRVLEEAYEIAEEGNSPVILLFVRRALEDLSSSSS
B4: il2ra_site2_3nfp_normal_mot_HHH_b2_07083_af2_000000083_0001_42_56_H_._HHH_b1_04834_0001_0000100004_0000001_0_af2pred_0001_af2pred (protein)
chain: SSSSDIEERVRELLEQLEEALREGDEELFERLAKEVSQLAYEANDPELFSEVAQLLLEFGSSSSS
B5: il2ra_site1_3nfp_normal_mot_b9b1aa0f98829a21a591038753170461_0001_1_af2_000000119_0001_3_14_H_._HHH_b2_06853_0001_0000500050_0000001_1_af2pred_0001_af2pred_swap … (protein)
chain: SSSSSSREAEELVRRIQEALKNDDKEQAEELLEELKEIAEERNSRIAKELIERLERKVKSSSSSS
B6: il2ra_site1_2b5i_sap_24_mot_add8a691351788dd45ba4deda1838316_0001_1_000000263_0001_37_51_H_._7e65b9b3744af75e5722afc9efacd91e_0001_0001_0000300025_0000001_0_000 … (protein)
chain: SSSSSDPEKALELFLKADELYKAGKEEEAKKLLEEALKLAKAGGSNLLVKFIESALKQLGSSSSS
B7: il2ra_site1_3nfp_sap_15_mot_HHH_b2_05538_af2_000000197_0001_20_36_H_._HHH_b2_05054_0001_0000100001_0000001_0_0001_af2pred_0001_af2pred_swapped (protein)
chain: SSSSSELIREAIELLEEALELAFNGNPEEAKEVLEEARRLAEELGNESLLRRIEFDLRALESSSS
B8: il2ra_site2_2erj_normal_mot_HHH_b1_01239_000000175_0001_43_57_H_._HHH_b2_03035_0001_0000100009_0000001_0_af2pred_0001_af2pred (protein)
chain: SSSSSDKEETREEVEELLEEAKRIPDLEEAIKLLQEAAELADKYNDPELQELVERVLRRLSSSSS
B9: il2ra_site2_3nfp_normal_mot_HHH_b1_00660_af2_000000090_0001_40_57_H_._HHH_b1_07903_0001_0000200012_0000001_0_af2pred_0001_af2pred (protein)
chain: SSSSDEEEREIEQLIREAKELLEEGNPEEAKEALHKAAALAAEARDHELFMKILLLLEKIESSSS
B10: il2ra_site1_1z92_normal_mot_934a834d9b8b770824478def2ff2f329_0001_af2_000000088_0001_15_30_H_._HHH_b2_05340_af2_0001_0000200014_0000001_0_af2pred_0001_af2pred_1 (protein)
chain: SSSSSDEEAEEIVEELVKEFGLSEALERQLRRLAEDAQRQGLDEEDIEKELRSFAEFASSSSSSS
B11: il2ra_site2_2erj_sap_17_mot_HHH_b2_00484_af2_000000139_0001_42_55_H_._HHH_b1_00676_0001_0000600026_0000001_0_0001 (protein)
chain: SSSSDWLHRIYELANEITRLISEGDPEKAEELLEELEELAKERDSPAAEKLVETLQKLIEQSSSS
B12: il2ra_site2_3nfp_normal_mot_HHH_b1_00660_af2_000000090_0001_40_57_H_._HHH_b1_00185_af2_0001_0000300017_0000001_0_af2pred_0001_1_af2pred_swapped (protein)
chain: SSSSDEVEEEVRRLIEEAEKLLEEGDHEEAEEIARRAATLAAEARNHELFVAVLRLLERILSSSS
B13: il2ra_site2_3nfp_normal_mot_HHH_b1_04960_000000149_0001_23_39_H_._HHH_b2_04281_0001_0000200015_0000001_0 (protein)
chain: SSSSDEEEEVERLIQELEELVREGDEEKVEQLAQRVAALAFELNDFEAFARVVELLLSLLSSSSS
B14: il2ra_site1_2b5i_normal_mot_HHH_b2_02428_000000197_0001_19_35_H_._ems_3hM_1194_af2_0001_0000300047_0000001_1_af2pred_dldesign_0_af2pred (protein)
chain: SSVRETKKLLIRIHYLAKKKGDEETVAKVDKLYEELEEAEENNDEEKIEEVRKKALELEKEVKKS
B15: il2ra_site1_1z92_sap_18_mot_HHH_b1_06033_000000254_0001_1_19_H_._HHH_b1_00885_0001_0000200008_0000001_0_0001 (protein)
chain: SSSSSEHSRKVFELMRRLNEAVRNGDEEEARELAEELLKLAEESGSRSFARLAEMVLEDLSSSSS
B16: il2ra_site2_2erj_normal_mot_HHH_eva_0050_af2_000000198_0001_43_62_H_._HHH_b2_07905_0001_0000100013_0000001_0 (protein)
chain: SSSSSSDELEKRVEELLEEARHLSDLEEVYRLLNEALHLAAKHKDHELLRLILEFLKEHSSSSSS
B17: il2ra_site1_3nfp_normal_mot_01923d483164837742cf829bee572cc5_0001_af2_000000153_0001_17_30_H_._HHH_b1_06675_0001_0000300010_0000001_0 (protein)
chain: SSSSDEERDARQLVEFLIELAGLSEEQQEELRRFAEKLVEEGVDLAEIAELVIRLAARLEGSSSS
B18: il2ra_site1_3nfp_sap_17_mot_ems_3hC_836_0002_000000087_0001_24_40_H_._HHH_b2_00803_0001_0000800041_0000001_0_0001 (protein)
chain: SSSSSDEEVKERVEELLEEARHVDPEEAAKLLKEAWEAAAELKDQELAEEIYRWMREIVKSSSSS
B19: il2ra_site1_3nfp_normal_mot_HHH_b1_03753_af2_000000088_0001_41_54_H_._894fcaf535bbcaf6280540f02ced91cd_0001_0001_0000600030_0000001_0 (protein)
chain: SLEEEVERLLREAGVPPRFIEVIKVLLRAVQKGNPNAERRLRYDIKVAEQLGNEELVEALELALK

These binders were tested against il2ra, P01589 (assay: yeast display titration).

Binder | apparent Kd
B1 | inactive: no binding seen
B2 | inactive: no binding seen
B3 | inactive: no binding seen
B4 | inactive: no binding seen
B5 | inactive: no binding seen
B6 | inactive: no binding seen
B7 | inactive: no binding seen
B8 | inactive: no binding seen
B9 | inactive: no binding seen
B10 | inactive: no binding seen
B11 | inactive: no binding seen
B12 | inactive: no binding seen
B13 | inactive: no binding seen
B14 | inactive: no binding seen
B15 | inactive: no binding seen
B16 | inactive: no binding seen
B17 | inactive: no binding seen
B18 | inactive: no binding seen
B19 | inactive: no binding seen

Taken from above:
B13 – apparent Kd: inactive: no binding seen
B17 – apparent Kd: inactive: no binding seen
